Experimental findings from PMC5141650 are described below.

In assay [1] the target is T1, NIPI-3 (No induction of peptide after Drechmeria infection 3), full length (C. elegans) (UniProt G5EED4).
T1 sequence: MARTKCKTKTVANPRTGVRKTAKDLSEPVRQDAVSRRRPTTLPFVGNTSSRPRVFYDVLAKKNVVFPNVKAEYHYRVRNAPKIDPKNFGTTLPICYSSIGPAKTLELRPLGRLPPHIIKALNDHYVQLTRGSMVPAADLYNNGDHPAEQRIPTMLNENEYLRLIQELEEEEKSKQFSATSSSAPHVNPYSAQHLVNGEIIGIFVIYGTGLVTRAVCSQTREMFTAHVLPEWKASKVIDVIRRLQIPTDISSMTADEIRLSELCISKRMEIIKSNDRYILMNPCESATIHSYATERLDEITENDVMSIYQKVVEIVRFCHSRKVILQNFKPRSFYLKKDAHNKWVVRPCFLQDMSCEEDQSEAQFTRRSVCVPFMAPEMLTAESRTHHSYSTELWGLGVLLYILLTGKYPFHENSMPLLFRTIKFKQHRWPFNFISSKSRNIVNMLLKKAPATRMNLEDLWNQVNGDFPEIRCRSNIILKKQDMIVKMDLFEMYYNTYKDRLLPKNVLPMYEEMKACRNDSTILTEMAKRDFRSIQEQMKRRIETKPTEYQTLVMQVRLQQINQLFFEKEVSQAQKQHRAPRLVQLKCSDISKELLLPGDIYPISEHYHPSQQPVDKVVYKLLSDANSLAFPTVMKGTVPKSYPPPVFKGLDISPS
The assay can be described thus: two-hybrid; CEBP-1 variants fused to the Gal4 activation domain (pACT2), full-length NIPI-3 fused to the LexA DNA-binding domain (pBTM116); co-transformed into yeast strain L40; interaction read as growth on SD medium lacking leucine, tryptophan and histidine.

In assay [2] the target is T1, NIPI-3 (No induction of peptide after Drechmeria infection 3), full length (C. elegans). The assay can be described thus: two-hybrid; yeast two-hybrid screen with the full-length NIPI-3 protein as bait; library and conditions not described.

Results are given in words; binding and its absence hold for the method and conditions named. Some binding calls cover weakened binding; strength is not graded here.

B1: CEBP-1 N-terminal region (amino acids 1-115) (domain or fragment, UniProt Q18909 1-115)
chain: MYSKLNYSHQKGDQALKHPHLVRLQQSEVRGFTDMPNNGASTSSAGSFARQDSLTIAASLQQRDRERHPVDFMETELDLGDYLQVLHDLDVPTDNVDFDDAELQKCNILYDGEHP
As to B1, the binding result in assay [1] is listed as “binds”.

B2: CEBP-1 (protein, UniProt Q18909 1-319)
chain: MYSKLNYSHQKGDQALKHPHLVRLQQSEVRGFTDMPNNGASTSSAGSFARQDSLTIAASLQQRDRERHPVDFMETELDLGDYLQVLHDLDVPTDNVDFDDAELQKCNILYDGEHPYEQPELNGYERHVAYGTGYRVPGDYDQDGYKMNCEVKAETPDFGATKTRRAVKRPVPYDDYQKEYSEESSDMTDNDGSVDDSYFEPKSKKTKSAGLENFKPQTRARKYKLKADEEKAEPTYKLKRARNNDAVRKSRKKAKELQDKKEAEHDKMKRRIAELEGLLQSERDARRRDQDTLEQLLRNKGPMKEQRMPQRHILENFNK
As for B2, the binding entry in assay [2] was “binds”.
